Test results from patent US20190083482A1, “PRMT5 INHIBITORS AND USES THEREOF” (Epizyme, Inc., priority 2017, published 2019).

Chains of the proteins cited; added tags and fusions are not shown. A line that says so, or that is headed by a name, gives the form on record, which may keep a tag or linker. Residues count along the entry.
UniProt O14744, 2-637 with tags or gaps: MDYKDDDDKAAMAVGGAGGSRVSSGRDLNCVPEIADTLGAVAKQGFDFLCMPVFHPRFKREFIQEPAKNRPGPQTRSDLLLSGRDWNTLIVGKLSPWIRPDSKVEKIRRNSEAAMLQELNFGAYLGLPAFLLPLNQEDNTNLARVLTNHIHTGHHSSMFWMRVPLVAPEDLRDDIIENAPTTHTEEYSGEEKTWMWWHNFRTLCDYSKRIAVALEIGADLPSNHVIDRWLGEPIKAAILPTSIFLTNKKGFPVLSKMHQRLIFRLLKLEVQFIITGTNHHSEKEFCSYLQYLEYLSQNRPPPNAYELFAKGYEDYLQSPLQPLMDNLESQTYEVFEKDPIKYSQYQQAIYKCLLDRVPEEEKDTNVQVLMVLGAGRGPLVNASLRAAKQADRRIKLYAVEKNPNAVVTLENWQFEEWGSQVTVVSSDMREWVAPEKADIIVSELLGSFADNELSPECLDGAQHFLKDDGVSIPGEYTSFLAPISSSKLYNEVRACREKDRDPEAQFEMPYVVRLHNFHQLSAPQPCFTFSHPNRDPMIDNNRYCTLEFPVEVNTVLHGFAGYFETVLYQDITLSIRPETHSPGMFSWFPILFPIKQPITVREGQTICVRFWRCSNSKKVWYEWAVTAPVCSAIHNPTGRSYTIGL
UniProt Q9BQA1, 2-342 with tags or gaps partner limits assumed: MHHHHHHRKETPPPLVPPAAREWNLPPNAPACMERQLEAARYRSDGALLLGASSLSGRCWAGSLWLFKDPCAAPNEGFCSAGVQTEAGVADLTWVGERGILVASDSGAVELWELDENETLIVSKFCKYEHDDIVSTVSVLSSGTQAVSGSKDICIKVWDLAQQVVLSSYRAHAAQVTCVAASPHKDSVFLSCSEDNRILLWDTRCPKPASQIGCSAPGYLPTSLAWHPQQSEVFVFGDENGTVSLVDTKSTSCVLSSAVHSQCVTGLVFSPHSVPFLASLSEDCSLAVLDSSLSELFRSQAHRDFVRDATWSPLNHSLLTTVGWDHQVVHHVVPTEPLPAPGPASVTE

Assays:
PRMT5/MEP50 = PRMT5/MEP50 (Homo sapiens, UniProt O14744); experiment: PRMT5 Biochemical Assay (PRMT5/MEP50 enzyme assay on peptide substrate, 3H-SAM Flashplate); conditions: read-out: Biochemical IC50; PRMT5/MEP50 4 nM, 3H-SAM 75 nM, peptide 40 nM
Z-138 cell line = experiment: Z-138 Proliferation Assay (Cell Titer Glo); conditions: read-out: Proliferation EC50; Z-138 cells, 5 days incubation, top concentration 20 μM
[1] = test system: symmetric di-methyl arginine in Z-138 cells; experiment: Z-138 Methylation Assay (In Cell Western for symmetric di-methyl arginine); conditions: read-out: ICW EC50, 96 hours incubation

Compound	IC50 (PRMT5/MEP50) [nM]	EC50 (Z-138 cell line) [nM]	EC50 [1] [nM]
CN1CCC(n2ncc3cc(OCC(=O)NCC(O)CN4CCc5ccccc5C4)ccc32)CC1 (stereo not drawn)	< 100	> 20000	101 to 1000
O=C(COc1ccc2c(cnn2C2CCNCC2)c1)NCC(O)CN1CCc2ccccc2C1 (stereo not drawn)	< 100	> 20000	101 to 1000

Structures were worked out from names or drawings and are uncertain.
